# Source: patent publication US8968703B2, “13C-MR detection using hyperpolarised 13C-fructose” (GE Healthcare Limited, priority 2009, dated 2015)
# System: TRAMP mouse prostate tumor
# Assay: In vivo 13C 3D MRSI in transgenic model of prostate cancer (TRAMP)
# Details: diffuse prostate tumor
smiles,measurement,setting,value
"O=[13C](CO)[C@@H](O)[C@H](O)[C@H](O)CO [fructose, [2-^13C]-fructose]","Ratio of composite furanose resonance to β-fructopyranose resonance, tumor vs surrounding tissue",,increased relative to the surrounding tissue
same,"Composite β-fructofuranose and β-fructofuranose-6-phosphate resonance, tumor vs surrounding benign tissues",80 mM hyperpolarized fructose injection,higher in the regions of diffuse tumor
